Results as given in PMC4920147.
Construct, isoform or probe ends are uncertain for at least one entry. At least one result comes from cells or an extract, where the contact may be indirect.

System: RelA (p65) + NFκB p50
Assay: EMSA supershift
Details: TNFα-treated E11 nuclear extract; not stated; EMSA as in Basak et al., 2007; protein in an extract

“CTGTGGGAAAGGGGTTTTCCCAGCAGTCAGG (double strand) [CD80 promoter probe]”: binds.
